These are yes or no findings as the source states them, for the method shown. Some results given as binding are weak or reduced against the parent protein; the word gives no strength.

The chains behind the UniProt entries cited, without tags or fusion partners.
UniProt O60264: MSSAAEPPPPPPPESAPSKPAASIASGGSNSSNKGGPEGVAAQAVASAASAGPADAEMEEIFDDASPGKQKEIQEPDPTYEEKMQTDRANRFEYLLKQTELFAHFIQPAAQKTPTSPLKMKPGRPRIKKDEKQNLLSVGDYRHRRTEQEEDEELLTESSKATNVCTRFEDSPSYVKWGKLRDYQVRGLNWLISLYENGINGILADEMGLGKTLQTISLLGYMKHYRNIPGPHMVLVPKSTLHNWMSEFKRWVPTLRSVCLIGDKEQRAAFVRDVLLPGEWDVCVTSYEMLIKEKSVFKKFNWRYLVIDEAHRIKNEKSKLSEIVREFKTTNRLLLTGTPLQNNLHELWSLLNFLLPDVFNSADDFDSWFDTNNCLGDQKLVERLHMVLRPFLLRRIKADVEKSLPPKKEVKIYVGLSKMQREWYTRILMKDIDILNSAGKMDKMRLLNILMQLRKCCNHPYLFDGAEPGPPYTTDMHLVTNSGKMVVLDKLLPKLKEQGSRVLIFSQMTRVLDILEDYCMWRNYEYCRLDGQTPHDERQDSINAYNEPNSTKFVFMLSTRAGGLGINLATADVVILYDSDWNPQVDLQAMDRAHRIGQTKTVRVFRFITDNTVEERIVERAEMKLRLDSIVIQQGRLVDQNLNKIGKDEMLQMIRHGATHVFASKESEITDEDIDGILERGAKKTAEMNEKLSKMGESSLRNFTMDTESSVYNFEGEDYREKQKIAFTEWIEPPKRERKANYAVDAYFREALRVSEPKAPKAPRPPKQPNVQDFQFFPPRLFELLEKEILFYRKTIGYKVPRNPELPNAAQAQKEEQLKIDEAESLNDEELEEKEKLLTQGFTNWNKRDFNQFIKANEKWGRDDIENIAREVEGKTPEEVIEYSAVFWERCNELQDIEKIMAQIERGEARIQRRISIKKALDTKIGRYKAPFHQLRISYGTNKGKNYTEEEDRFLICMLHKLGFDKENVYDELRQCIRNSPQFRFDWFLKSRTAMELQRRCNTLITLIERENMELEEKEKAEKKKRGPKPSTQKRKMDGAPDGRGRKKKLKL
UniProt Q91YE5: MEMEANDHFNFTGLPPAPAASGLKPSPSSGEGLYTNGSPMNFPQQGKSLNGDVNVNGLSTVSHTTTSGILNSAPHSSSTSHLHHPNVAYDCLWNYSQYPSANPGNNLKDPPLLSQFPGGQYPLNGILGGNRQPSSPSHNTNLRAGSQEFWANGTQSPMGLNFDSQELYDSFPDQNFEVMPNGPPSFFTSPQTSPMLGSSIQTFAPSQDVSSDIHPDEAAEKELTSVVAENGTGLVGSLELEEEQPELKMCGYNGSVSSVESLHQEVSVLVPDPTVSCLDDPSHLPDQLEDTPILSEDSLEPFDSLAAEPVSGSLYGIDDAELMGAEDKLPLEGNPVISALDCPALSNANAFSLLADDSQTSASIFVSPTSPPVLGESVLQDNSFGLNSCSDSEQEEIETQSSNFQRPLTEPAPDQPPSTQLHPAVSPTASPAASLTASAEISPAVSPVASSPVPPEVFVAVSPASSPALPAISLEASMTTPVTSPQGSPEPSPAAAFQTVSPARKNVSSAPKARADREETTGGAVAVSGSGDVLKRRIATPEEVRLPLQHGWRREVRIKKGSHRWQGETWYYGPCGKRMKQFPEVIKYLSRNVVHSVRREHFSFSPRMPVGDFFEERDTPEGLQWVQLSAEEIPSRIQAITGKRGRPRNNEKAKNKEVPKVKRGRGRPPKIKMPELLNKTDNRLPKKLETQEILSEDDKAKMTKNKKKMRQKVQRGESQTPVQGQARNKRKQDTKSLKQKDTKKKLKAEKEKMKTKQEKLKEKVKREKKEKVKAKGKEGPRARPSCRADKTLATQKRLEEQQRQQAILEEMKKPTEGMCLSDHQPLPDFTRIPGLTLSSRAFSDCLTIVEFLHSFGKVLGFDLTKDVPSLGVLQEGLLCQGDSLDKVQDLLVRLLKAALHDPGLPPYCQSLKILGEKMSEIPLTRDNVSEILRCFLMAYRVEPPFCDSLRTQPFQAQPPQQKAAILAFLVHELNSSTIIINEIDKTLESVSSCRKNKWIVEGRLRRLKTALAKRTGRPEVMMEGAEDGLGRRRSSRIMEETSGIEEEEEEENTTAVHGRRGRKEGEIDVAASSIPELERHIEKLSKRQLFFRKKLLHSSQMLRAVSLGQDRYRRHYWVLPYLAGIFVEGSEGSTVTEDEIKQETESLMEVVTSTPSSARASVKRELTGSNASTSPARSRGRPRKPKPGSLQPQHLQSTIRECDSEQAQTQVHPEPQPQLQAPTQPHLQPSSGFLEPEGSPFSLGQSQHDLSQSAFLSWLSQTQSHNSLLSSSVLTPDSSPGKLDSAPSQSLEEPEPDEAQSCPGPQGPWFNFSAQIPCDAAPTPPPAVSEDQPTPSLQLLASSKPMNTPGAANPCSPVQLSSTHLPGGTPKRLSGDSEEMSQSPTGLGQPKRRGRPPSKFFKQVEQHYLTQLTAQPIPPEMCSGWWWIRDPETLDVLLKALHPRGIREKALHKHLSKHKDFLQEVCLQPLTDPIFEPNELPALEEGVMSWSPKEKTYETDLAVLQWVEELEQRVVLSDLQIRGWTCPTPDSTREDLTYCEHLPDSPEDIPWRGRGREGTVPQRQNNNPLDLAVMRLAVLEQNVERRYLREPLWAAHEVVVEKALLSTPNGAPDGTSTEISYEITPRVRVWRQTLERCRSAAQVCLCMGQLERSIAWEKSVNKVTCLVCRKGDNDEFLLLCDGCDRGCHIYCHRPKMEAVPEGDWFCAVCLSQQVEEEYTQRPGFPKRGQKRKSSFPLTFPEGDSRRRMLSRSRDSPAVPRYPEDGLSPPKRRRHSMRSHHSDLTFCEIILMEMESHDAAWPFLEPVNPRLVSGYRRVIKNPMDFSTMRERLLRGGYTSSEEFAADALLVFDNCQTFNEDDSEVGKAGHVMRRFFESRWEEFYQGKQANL

The target in the assay is Snf2H (UniProt O60264). The assay can be described thus: co-purification (Ni-NTA affinity chromatography); Snf2H (N-terminal His tag) and Tip5 co-expressed in SF21 cells with baculovirus; complex purified via Ni-NTA by the His tag of Snf2H; analysed by SDS-PAGE and Coomassie staining.

On to “Tip5 (TTFI interacting protein 5) (from UniProt Q91YE5 1-1889)”, for which the binding result is “binds”.

The values above are taken from PMC3961174.
